Assay results from US5726156A (Trega Biosciences, Inc., priority 1995, dated 1998).

Experiments:
[1] = test system: kidney (cyclosporine-induced nephrotoxicity); assay: Cyclosporine-induced nephrotoxicity; type: in vivo, rats
Experimental: In the first study, male Sprague-Dawley rats (n=43) with a weight range of 240-290 g at the initiation of the cyclosporine A (CsA) treatment were divided into 4 weight matched groups. The groups were as follows: (1) Control: no CsA, no EX-2, treatment only with CsA vehicle (PBS) PO and EX-2 vehicle (also PBS) IP; (2) CsA: treatment with CsA (50 mg/kg in PBS administered PO daily at 0830 hr for 9 days) and IP injections of PBS (Ex-2 vehicle); (3) CsA and 50 μg: CsA treatment identical to group 2 with the addition of EX-2 (50 μg/kg IP administered daily at 0800 and 1700 hr in EX-2 vehicle); and (4) CsA and 500 μg: CsA treatment identical to groups 2 and 3, and EX-2 treatment protocol similar to group 3 except that the dose of EX-2 was 500 μg/kg BW. After deep anesthesia was assured, the rats were cannulated in the trachea (PE 240) jugular vein, femoral artery, and bladder (PE 50 for the previous 3 cannulations).After cannulation, infusion of ^3 H-inulin was initiated 50 min prior to the measurement period to assess glomerular filtration rate, renal blood flow and plasma flow. Renal blood flow was determined by the inulin extraction technique. At the end of the study, the kidneys were removed for histological analysis.
In the second study, male Sprague-Dawley rats (n=3l) with a weight range of 240-290 g at the time of initiation of the cyclosporine treatment were divided into 4 weight-matched groups. The time course and protocol of this study matched the first study with the following exceptions: (1) The daily dose of CsA was reduced to 30 mg/kg and was administered subcutaneously (SC) and (2) the 50 μ/kg dose of EX-2 was substituted with a twice daily dose of 200 μg/kg. The 500 μg/kg dose of EX-2 was repeated in this study. Renal hemodynamics were determined and extracellular fluid volumes were also assessed.
In the second study, where extracellular fluid volumes (ECF) were measured, there were no differences in ECF among control and treatment groups (27.6±1.9 in control, 27.5±1.7 in CsA and vehicle, 26.2±0.9 in CsA +200 μg/kg EX-2, and 25.7±1.4% in CsA +500 μg/kg EX-2). […]

[2] = general procedure: Boc solid-phase peptide synthesis; MBHA; dicyclohexylcarbodiimide; details: whole synthesis, 215 nm
[3] = solid-phase peptide synthesis; details: whole synthesis, RP-HPLC, absorption at 215 nm

Ac-Nle-Gln-His-(D)Phe-Arg-(D)Trp-Gly-NH2 [EX-2]
urinary protein excretion ([1]; compared to CsA-treated rats): did not increase urinary protein excretion
extracellular fluid volumes (ECF) ([1]; second study: CsA 30 mg/kg SC + 200 μg/kg EX-2 twice daily): 26.2±0.9%
extracellular fluid volumes (ECF) ([1]; second study: CsA 30 mg/kg SC + 500 μg/kg EX-2 twice daily): 25.7±1.4%

NIe-Gln-His-(D) Phe-Arg-(D)Trp-GlY
final HPLC purity [2]: 97%

Nle-Gln-His-(D) Phe-Arg-(D) Trp-Gly-NH2
final HPLC purity [3]: 98%
